Source: PMC2890414
No constants are given. Whether binding was seen depends on the method and setting. Binding seen in cells or lysates may run through a third protein. Some binding calls cover weakened binding; strength is not graded here.

Amino acid sequences for entries named in this document (tags omitted).
UniProt P21333: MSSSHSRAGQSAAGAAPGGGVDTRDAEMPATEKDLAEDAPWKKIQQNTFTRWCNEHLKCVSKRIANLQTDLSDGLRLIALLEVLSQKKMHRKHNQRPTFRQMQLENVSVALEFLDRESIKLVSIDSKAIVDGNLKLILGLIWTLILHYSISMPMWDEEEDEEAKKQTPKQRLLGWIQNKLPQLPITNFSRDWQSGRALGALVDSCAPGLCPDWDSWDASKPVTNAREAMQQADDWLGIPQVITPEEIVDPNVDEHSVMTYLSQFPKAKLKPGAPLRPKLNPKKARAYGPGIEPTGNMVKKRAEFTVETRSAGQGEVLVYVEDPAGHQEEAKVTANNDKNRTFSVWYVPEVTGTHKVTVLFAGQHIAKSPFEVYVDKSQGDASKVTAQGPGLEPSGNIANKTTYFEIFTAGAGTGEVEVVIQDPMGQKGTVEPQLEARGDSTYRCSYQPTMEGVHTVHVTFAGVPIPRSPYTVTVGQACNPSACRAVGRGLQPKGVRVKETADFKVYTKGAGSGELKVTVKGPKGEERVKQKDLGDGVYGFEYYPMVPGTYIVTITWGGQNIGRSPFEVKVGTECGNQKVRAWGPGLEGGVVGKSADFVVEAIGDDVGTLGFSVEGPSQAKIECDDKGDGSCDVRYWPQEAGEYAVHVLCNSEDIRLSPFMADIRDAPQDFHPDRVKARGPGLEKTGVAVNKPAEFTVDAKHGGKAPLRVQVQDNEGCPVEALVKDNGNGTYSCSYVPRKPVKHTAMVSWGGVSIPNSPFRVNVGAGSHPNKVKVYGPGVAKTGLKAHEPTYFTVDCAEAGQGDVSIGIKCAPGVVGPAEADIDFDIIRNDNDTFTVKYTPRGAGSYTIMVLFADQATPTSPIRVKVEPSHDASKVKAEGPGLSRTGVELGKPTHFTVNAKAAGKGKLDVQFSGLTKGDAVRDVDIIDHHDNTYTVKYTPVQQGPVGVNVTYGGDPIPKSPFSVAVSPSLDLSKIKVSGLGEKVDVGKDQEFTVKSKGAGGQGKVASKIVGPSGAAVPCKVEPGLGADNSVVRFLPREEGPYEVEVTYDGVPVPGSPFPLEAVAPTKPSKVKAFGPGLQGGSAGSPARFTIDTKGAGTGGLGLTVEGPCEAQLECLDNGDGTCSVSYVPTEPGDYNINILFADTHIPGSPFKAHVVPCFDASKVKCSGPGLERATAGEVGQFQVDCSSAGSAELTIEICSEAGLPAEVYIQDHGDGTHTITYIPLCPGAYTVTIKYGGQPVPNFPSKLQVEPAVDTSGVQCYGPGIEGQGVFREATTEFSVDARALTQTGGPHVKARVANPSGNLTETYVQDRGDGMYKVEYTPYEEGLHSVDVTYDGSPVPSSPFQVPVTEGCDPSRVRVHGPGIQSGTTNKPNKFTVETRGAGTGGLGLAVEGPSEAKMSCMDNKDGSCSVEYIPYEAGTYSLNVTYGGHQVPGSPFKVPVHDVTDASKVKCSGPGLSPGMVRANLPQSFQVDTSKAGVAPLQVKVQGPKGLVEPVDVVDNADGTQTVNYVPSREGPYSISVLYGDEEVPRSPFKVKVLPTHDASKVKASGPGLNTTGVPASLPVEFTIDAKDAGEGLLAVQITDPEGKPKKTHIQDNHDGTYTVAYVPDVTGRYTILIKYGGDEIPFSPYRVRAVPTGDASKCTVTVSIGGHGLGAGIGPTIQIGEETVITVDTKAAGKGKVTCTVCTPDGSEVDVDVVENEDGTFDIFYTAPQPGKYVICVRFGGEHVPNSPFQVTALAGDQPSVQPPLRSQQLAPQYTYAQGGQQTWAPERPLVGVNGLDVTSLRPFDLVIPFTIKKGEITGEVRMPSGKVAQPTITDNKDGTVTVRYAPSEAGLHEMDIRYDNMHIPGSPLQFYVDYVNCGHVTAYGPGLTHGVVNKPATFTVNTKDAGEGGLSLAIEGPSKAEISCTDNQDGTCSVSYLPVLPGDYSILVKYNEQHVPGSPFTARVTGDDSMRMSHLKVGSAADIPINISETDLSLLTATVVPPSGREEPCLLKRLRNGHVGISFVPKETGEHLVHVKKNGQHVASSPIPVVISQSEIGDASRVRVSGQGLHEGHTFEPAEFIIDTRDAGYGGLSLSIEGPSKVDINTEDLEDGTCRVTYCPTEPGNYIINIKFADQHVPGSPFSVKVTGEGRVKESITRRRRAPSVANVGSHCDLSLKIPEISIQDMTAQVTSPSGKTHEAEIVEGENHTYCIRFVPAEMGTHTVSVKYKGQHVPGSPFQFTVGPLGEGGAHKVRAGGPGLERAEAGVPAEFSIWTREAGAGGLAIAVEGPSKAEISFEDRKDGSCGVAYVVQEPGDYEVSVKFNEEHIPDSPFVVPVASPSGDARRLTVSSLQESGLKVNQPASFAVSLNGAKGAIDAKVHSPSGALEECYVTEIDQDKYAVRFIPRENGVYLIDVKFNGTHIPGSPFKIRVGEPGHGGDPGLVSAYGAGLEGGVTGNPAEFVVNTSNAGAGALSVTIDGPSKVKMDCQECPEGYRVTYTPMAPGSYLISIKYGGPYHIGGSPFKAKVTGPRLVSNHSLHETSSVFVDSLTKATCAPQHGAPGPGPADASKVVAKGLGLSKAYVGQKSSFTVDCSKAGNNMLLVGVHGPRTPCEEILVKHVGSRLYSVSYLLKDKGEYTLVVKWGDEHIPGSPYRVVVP

Molecular target: His-tagged wild type FLNa (UniProt P21333)
Assay: co-IP; M2 cells co-transfected, lysed 48 h post transfection, immunoprecipitated with anti-His conjugated IgG beads or IgG beads alone, immunoblotted with anti-R-Ras antibody

- binding: binds
B1: active R-Ras G38V (protein, UniProt P10301 1-218)
chain: MSSGAASGTGRGRPRGGGPGPGDPPPSETHKLVVVGGVGVGKSALTIQFIQSYFVSDYDPTIEDSYTKICSVDGIPARLDILDTAGQEEFGAMREQYMRAGHGFLLVFAINDRQSFNEVGKLFTQILRVKDRDDFPVVLVGNKADLESQRQVPRSEASAFGASHHVAYFEASAKLRLNVDEAFEQLVRAVRKYQEQELPPSPPSAPRKKGGGCPCVLL
